Results reported in patent US20090175995A1, “CONTROL OF FLAVOR CHARACTERISTICS OF AND INDICATOR OF FRESHNESS IN FRUIT JUICE” (TROPICANA PRODUCTS, INC., priority 2007, published 2009).
At least one read-out could not be matched to a standard name with certainty.

Columns and labels:
Astringency Taste = test: Astringency taste threshold, sensory; set-up: species or system human; conditions: in vivo
Description: The inventors have discovered that, as with bitterness, a plurality of compounds present in orange juice below the astringency threshold contributes to the astringent mouth feel of the juice.
(§1) To make these evaluations, eleven assessors (four women and seven men, age 23-39 years), who participated for at least two years in weekly training sessions, determined taste recognition threshold concentrations in bottled water (pH 5.1) by means of a three-alternative forced-choice method with ascending concentrations of the stimulus following the procedure reported previously in Stark, T.; Barenther, S.; Hofmann, T. (2005) J. Agric. Food Chem. 53:5407-5418.

Bitter Taste = test: Bitter taste recognition threshold, trained sensory panel; set-up: species or system human; conditions: in vivo
Experimental: To study the influence of the chirality of C(17) on the sensory activity of these limonoids, bitter threshold concentrations were determined for limonin and C17-epilimonin.
as §1

SMILES: COc1ccc(-c2cc(=O)c3c(OC)cc(OC)c(OC)c3o2)cc1OC [5,7,8,3′,4′-pentamethoxyflavone]
- Astringency Taste Threshold (Astringency Taste): 13.3 µmol/L
- Bitter Taste Threshold (Bitter Taste): 32.3 µmol/L
